# Experimental data published in patent US5278174A, “Sigma binding site agents” (priority 1991, dated 1994).
# Protein sequences, listed by entry. Tags and fused reporters are not part of them.
# UniProt Q60492, whole entry: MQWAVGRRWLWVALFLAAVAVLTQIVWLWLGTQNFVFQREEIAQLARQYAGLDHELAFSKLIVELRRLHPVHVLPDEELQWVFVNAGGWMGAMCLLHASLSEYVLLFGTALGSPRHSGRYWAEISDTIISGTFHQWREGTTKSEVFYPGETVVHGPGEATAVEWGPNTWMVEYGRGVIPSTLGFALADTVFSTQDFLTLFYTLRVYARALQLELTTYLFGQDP
# Legend:
# sigma sites [1] = assay: Sigma receptor binding assay, [3H]DTG; settings: 5 nM [3H]DTG; guinea pig whole brain; room temperature, 45 minutes; read-out: Receptor Potency Sigma DTG (IC50, nMol)
# Procedure: (§1) Two selective sigma receptor ligands, [^3 H](+)-3-[3-hydroxyphenyl]-N-(1 propyl)piperidine [(+)-3-PPP] and [^3 H] Ditolylguanidine (DTG), were used to label sigma sites in brain tissue.
# (§2) The tissue preparation and assay conditions employed when using either of these ligands were essentially the same. Frozen whole guinea pig brains (obtained from Pel-Freez, Rogers, Ariz.) were homogenized in 10 volumes of ice-cold 0.32M sucrose. The resulting pellet was resuspended in 10 volumes of ice-cold 50 mM Tris-HCl (pH 7.4), incubated at 37 ° C. for 30 minutes, and centrifuged at 22,000 × g for 20 minutes. The final tissue suspension was made in 50 mM Tris-HCl (pH 7.4) to a concentration of 20 mg original wet weight/mL. 800 μL of tissue suspension was added to tubes containing 5 nM [^3 H] DTG or 4 nM [^3 H] […] The final assay volume was 1 mL. The assay tubes were gently vortexed, and the binding reaction was carried out for 45 minutes at room temperature. The reaction was terminated by rapid filtration over Whatman GF/B glass fiber filters, which were then rinsed 3x with 5 mL of 50 mM Tris-HCl. Filter bound radioactivity was quantified using liquid scintillation spectrometry.
# sigma sites [2] = biological target: T1, sigma sites (Cavia porcellus, UniProt Q60492); assay: Sigma receptor binding assay, [3H](+)-3-PPP; set-up: species or system guinea pig
# T1 construct: Frozen whole guinea pig brains; tissue Pel-Freez, Rogers, Ariz; host or cells: whole guinea pig brain membranes
# Procedure: as §1, §2
smiles,measurement,setting,value
"CN1CCN(C2=Nc3cc(Cl)ccc3Nc3ccccc32)CC1 [Clozapine, reference compound]",IC50,sigma sites [1],15 µM
same,IC50,sigma sites [2],34.6 µM
